In this assay the target is Rat HA-SMYD5, from lentivirus vector pCMV-Smyd5 (rat)-HA-Neo (rat). In words: affinity purification with mass spectrometry; rat FLS expressing HA-SMYD5 lysed in IP-RIPA buffer; anti-HA mouse mAb and Protein A/G PLUS-Agarose; SDS-PAGE, the HA-SMYD5 band and a nearby region (~42 kd) excised for mass spectrometry.

No constants are given. Whether binding was seen depends on the method and setting. In cells and extracts the contact can be indirect. A yes stands for co-enrichment or nearness to the bait. Other partners may have been found.

B1: HK2 (endogenous, rat fibroblast-like synoviocytes) (enzyme, UniProt P27881 1-917)
chain: MIASHMIACLFTELNQNQVQKVDQFLYHMRLSDETLLEISRRFRKEMEKGLGATTHPTAAVKMLPTFVRSTPDGTEHGEFLALDLGGTNFRVLRVRVTDNGLQRVEMENQIYAIPEDIMRGSGTQLFDHIAECLANFMDKLQIKEKKLPLGFTFSFPCHQTKLDESFLVSWTKGFKSSGVEGRDVVDLIRKAIQRRGDFDIDIVAVVNDTVGTMMTCGYDDQNCEIGLIVGTGSNACYMEEMRHIDMVEGDEGRMCINMEWGAFGDDGTLNDIRTEFDREIDMGSLNPGKQLFEKMISGMYMGELVRLILVKMAKAELLFQGKLSPELLTTGSFETKDVSDIEEDKDGIEKAYQILMRLGLNPLQEDCVATHRICQIVSTRSASLCAATLAAVLWRIKENKGEERLRSTIGVDGSVYKKHPHFAKRLHKAVRRLVPDCDVRFLRSEDGSGKGAAMVTAVAYRLADQHRARQKTLESLKLSHEQLLEVKRRMKVEMEQGLSKETHAVAPVKMLPTYVCATPDGTEKGDFLALDLGGTNFRVLLVRVRNGKRRGVEMHNKIYSIPQEVMHGTGEELFDHIVQCIADFLEYMGMKGVSLPLGFTFSFPCQQNSLDQSILLKWTKGFKASGCEGEDVVTLLKEAIHRREEFDLDVVAVVNDTVGTMMTCGYEDPHCEVGLIVGTGSNACYMEEMRNVELVDGEEGRMCVNMEWGAFGDNGCLDDLRTVFDVAVDELSLNPGKQRFEKMISGMYLGEIVRNILIDFTKRGLLFRGRISERLKTRGIFETKFLSQIESDCLALLQVRAILRHLGLESTCDDSIIVKEVCTVVARRAAQLCGAGMAAVVDKIRENRGLDNLKVTVGVDGTLYKLHPHFAKVMHETVRDLAPKCDVSFLESEDGSGKGAALITAVACRIREAGQR
Consider B1, for which the binding entry is listed as “binds”.
